Values from PubChem BioAssay AID1259308 (NCATS, 2017)

- Assay: 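Genes whose loss raises luciferase production in HEK293 cells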 (primary screen)
- Cells: human HEK293 embryonic kidney cells stably expressing firefly luciferase (HEK-CMV-Luc2-Hygro)
- Knock-down reagent: single siRNA against human genes, 0.8 pmol siRNA per well
- Timing: 72 h
- Detection: 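Reporter luminescence and viable-cell signal on separate replicate plates, given as percent of non-targeting control and median/MAD z-scores, plus per-cell luciferase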
- Scale: total luciferase, z-score and total luciferase, % of control: higher = more reporter protein produced
- Hit rule: 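Active when the median/MAD z-score for overall luciferase is greater than 3; a gene was taken forward for validation with new siRNAs if at least two of its three siRNAs passed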
- Calls: active = raised luciferase; inactive = no rise
This is a random part of about 59,000 deposited reagents. Of all reagents, about 1,510 (2.6%) got an active call. 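Calls use total luciferase alone and ignore viability, so some active siRNAs may act by altering cell number.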 Entries without a mark were called inactive. Reagents against one gene are numbered here. Not all columns of the deposit are shown.

LPCAT2 #1 | total luciferase, z-score: -0.00409; total luciferase, % of control: 81.8
LPCAT2 #2 | total luciferase, z-score: 1.86; total luciferase, % of control: 119
LPCAT2 #3 | total luciferase, z-score: -0.808; total luciferase, % of control: 65.8
CLDN10 #1 | total luciferase, z-score: -1.54; total luciferase, % of control: 51.3
CLDN10 #2 | total luciferase, z-score: 4.14 (active); total luciferase, % of control: 164
CLDN10 #3 | total luciferase, z-score: 0.654; total luciferase, % of control: 94.9
MIB1 #1 | total luciferase, z-score: 0.54; total luciferase, % of control: 92.6
MIB1 #2 | total luciferase, z-score: 1.14; total luciferase, % of control: 105
MIB1 #3 | total luciferase, z-score: -0.557; total luciferase, % of control: 70.8
GDE1 #1 | total luciferase, z-score: -0.908; total luciferase, % of control: 63.8
GDE1 #2 | total luciferase, z-score: -2.01; total luciferase, % of control: 41.9
GDE1 #3 | total luciferase, z-score: -0.748; total luciferase, % of control: 67

Records above whose target name begins with M or m (3):
MIB1 #1 | total luciferase, z-score: 0.54; total luciferase, % of control: 92.6
MIB1 #2 | total luciferase, z-score: 1.14; total luciferase, % of control: 105
MIB1 #3 | total luciferase, z-score: -0.557; total luciferase, % of control: 70.8

Further entries:
ZNF383 #1 | total luciferase, z-score: 0.0694; total luciferase, % of control: 83.3
ZNF383 #2 | total luciferase, z-score: 0.756; total luciferase, % of control: 96.9
ZNF383 #3 | total luciferase, z-score: 0.0673; total luciferase, % of control: 83.2
LATS2 #1 | total luciferase, z-score: -0.45; total luciferase, % of control: 72.9
LATS2 #2 | total luciferase, z-score: 1.99; total luciferase, % of control: 122
LATS2 #3 | total luciferase, z-score: -2.47; total luciferase, % of control: 32.7
DMD #1 | total luciferase, z-score: 0.975; total luciferase, % of control: 101
DMD #2 | total luciferase, z-score: -0.377; total luciferase, % of control: 74.4
DMD #3 | total luciferase, z-score: 0.001; total luciferase, % of control: 81.9
